Reference: PubChem BioAssay AID1053208 (Peter MacCallum Cancer Centre, 2014)

- Assay: 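Find knock-downs that sensitise mouse osteosarcoma cells to doxorubicin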 (primary screen)
- System: mouse osteosarcoma cells, early-passage culture from an engineered mouse model of fibroblastic bone tumour
- Reagents: siRNA pool against mouse genes, 40 nM
- Timing: about 120 h (48 h before drug, then 72 h with drug)
- Treatment: doxorubicin 100 nM for 72 h, roughly 30-40% inhibitory dose
- Measurement: 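Luminescent ATP signal taken as viability with or without 100 nM doxorubicin for 72 h; mean of two wells set against non-targeting siRNA and turned into robust z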
- Direction: viability z-score with doxorubicin: higher = more viable cells under doxorubicin; viability z-score without drug: higher = more viable cells with knock-down alone
- Active means: 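Called active if knock-down leaves viability unchanged without drug (z within -2 to 2) but lowers it with doxorubicin (z at or under -2)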
Here is an unselected part of about 17,000 deposited reagents. Over the whole deposit, 788 (4.7%) got an active call. 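Calls rest on z-score classes alone; an extra cut-off of viability at most 70% of control was not applied to them.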 Entries without a mark were called inactive. Further read-outs or replicates are left out here. Reagent sequences are not shown.

Pianp: combined z-score class = no change with or without drug; viability z-score with doxorubicin = 0.22; viability z-score without drug = 0.84
Or6b2: combined z-score class = no change with or without drug; viability z-score with doxorubicin = 0.56; viability z-score without drug = -0.84
Fmnl1: combined z-score class = no change with or without drug; viability z-score with doxorubicin = 0; viability z-score without drug = 0.34
Rnf152: combined z-score class = no change with or without drug; viability z-score with doxorubicin = 0.67; viability z-score without drug = -0.51
Htt: combined z-score class = no change with or without drug; viability z-score with doxorubicin = 0.79; viability z-score without drug = 0.17
Thnsl1: combined z-score class = no change with or without drug; viability z-score with doxorubicin = 0; viability z-score without drug = 0.17
9530002B09Rik: combined z-score class = no change with or without drug; viability z-score with doxorubicin = 1.12; viability z-score without drug = 1.52
Or8u9: combined z-score class = no change with or without drug; viability z-score with doxorubicin = -1.12; viability z-score without drug = -1.85
Nfkb1: combined z-score class = no change with or without drug; viability z-score with doxorubicin = 0.67; viability z-score without drug = 0.67
Galr2: combined z-score class = no change with or without drug; viability z-score with doxorubicin = -0.67; viability z-score without drug = -1.52
Cd83: combined z-score class = no change with or without drug; viability z-score with doxorubicin = -0.34; viability z-score without drug = -1.18
Plppr1: combined z-score class = no change with or without drug; viability z-score with doxorubicin = -0.45; viability z-score without drug = 0.51
Sfrp1: combined z-score class = no change with or without drug; viability z-score with doxorubicin = -0.22; viability z-score without drug = 0
Dbh: combined z-score class = no change with or without drug; viability z-score with doxorubicin = 0.56; viability z-score without drug = 0.17
Rplp1: combined z-score class = low cell count with and without drug; viability z-score with doxorubicin = -4.95; viability z-score without drug = -6.41
Tm6sf2: combined z-score class = no change with or without drug; viability z-score with doxorubicin = 0; viability z-score without drug = 0.84
Hoxd1: combined z-score class = no change with or without drug; viability z-score with doxorubicin = 0.79; viability z-score without drug = 0.51
Pcdhb13: combined z-score class = high cell count with doxorubicin only; viability z-score with doxorubicin = 2.02; viability z-score without drug = 1.01
Mis12: combined z-score class = high cell count with doxorubicin only; viability z-score with doxorubicin = 2.81; viability z-score without drug = 1.18
Cdca8: combined z-score class = low cell count without drug only; viability z-score with doxorubicin = -1.46; viability z-score without drug = -2.36
Clta: combined z-score class = no change with or without drug; viability z-score with doxorubicin = -1.01; viability z-score without drug = -0.67
Ints3: combined z-score class = no change with or without drug; viability z-score with doxorubicin = -0.9; viability z-score without drug = 0.17
Plp1: combined z-score class = no change with or without drug; viability z-score with doxorubicin = 1.35; viability z-score without drug = 1.18
Tbp: combined z-score class = no change with or without drug; viability z-score with doxorubicin = -1.8; viability z-score without drug = -0.51
Ifna2: combined z-score class = no change with or without drug; viability z-score with doxorubicin = 0.9; viability z-score without drug = -0.84
Ppp6r3: combined z-score class = no change with or without drug; viability z-score with doxorubicin = -0.9; viability z-score without drug = 0.17
Nudt6: combined z-score class = no change with or without drug; viability z-score with doxorubicin = -0.45; viability z-score without drug = -0.51
Krtap13-21: combined z-score class = low cell count with and without drug; viability z-score with doxorubicin = -3.04; viability z-score without drug = -2.53
Alcam: combined z-score class = no change with or without drug; viability z-score with doxorubicin = -1.01; viability z-score without drug = -0.67
Vmn1r47: combined z-score class = no change with or without drug; viability z-score with doxorubicin = 1.01; viability z-score without drug = 0.17
Barx2: combined z-score class = no change with or without drug; viability z-score with doxorubicin = -0.67; viability z-score without drug = 0.67
Trim35: combined z-score class = high cell count without drug only; viability z-score with doxorubicin = 1.35; viability z-score without drug = 3.04
Borcs5: combined z-score class = no change with or without drug; viability z-score with doxorubicin = 0.22; viability z-score without drug = -0.51
Samd5: combined z-score class = low cell count with and without drug; viability z-score with doxorubicin = -2.47; viability z-score without drug = -2.53
Nudt2: combined z-score class = no change with or without drug; viability z-score with doxorubicin = -0.11; viability z-score without drug = -0.17
Liat1: combined z-score class = no change with or without drug; viability z-score with doxorubicin = -1.8; viability z-score without drug = 0.84
